Values of other authors, collected in patent US20160154928A1, “SYSTEMS, METHODS, AND ENVIRONMENT FOR AUTOMATED REVIEW OF GENOMIC DATA TO IDENTIFY DOWNREGULATED AND/OR UPREGULATED GENE EXPRESSION INDICATIVE OF A DISEASE OR CONDITION” (IMMUNEERING CORPORATION, priority 2013, published 2016).
At least one compound was matched to its structure with a doubt left.

Tested on: C elegans
Conditions: cited from earlier work

For `CN(C)[C@@H]1C(O)=C(C(N)=O)C(=O)[C@@]2(O)C(O)=C3C(=O)c4c(O)cccc4[C@@](C)(O)[C@H]3C[C@@H]12` [tetracycline], which Aβ toxicity is on record?
Its Aβ toxicity is “protect from Aβ toxicity”.
